{"source": "the supplement of paper PMC4604168 (melanoma cell lines)", "note": "The list shows a part of the results. Repeats are few or missing, and single values can be far off.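 Imaging used 1,536-well plates; nuclei positive for cleaved PARP by antibody were divided by total DNA-stained nuclei to yield the apoptosis fraction. Doses for screening kept most cells viable, and cell lines differ markedly in resting and induced cleaved-PARP levels.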", "data": [{"test_system": "WM1745", "experiment": "cleaved PARP positive nuclei fraction relative to DMSO control; melanoma cells; higher = more apoptosis", "conditions": "library dose: low library concentration; 72 h", "units": {"cleaved PARP positive nuclei fraction": "%"}, "values": [{"smiles": "O=C(CCCCCCC(=O)Nc1ccccc1)NO", "note": "[vorinostat] + CCc1ccc(CCOc2ccc(CC3SC(=O)NC3=O)cc2)nc1 [pioglitazone] (first compound 0.08 µM, partner dose 2 µM)", "cleaved PARP positive nuclei fraction": 95.3}, {"smiles": "C#Cc1cccc(Nc2ncnc3cc(OCCOC)c(OCCOC)cc23)c1", "note": "[erlotinib] + O=C(Nc1ccccc1)c1cc([N+](=O)[O-])ccc1Cl [GW9662] (first compound 0.8 µM, partner dose 2 µM)", "cleaved PARP positive nuclei fraction": 139}, {"smiles": "Cc1cc(N2CCOCC2)cc2[nH]c(-c3c(NC[C@@H](O)c4cccc(Cl)c4)cc[nH]c3=O)nc12", "note": "+ O=C1NC(=O)/C(=C/c2ccc(-c3ccc(F)cc3O)o2)S1 [AS252424] (first compound 0.2 µM, partner dose 1 µM)", "cleaved PARP positive nuclei fraction": 133}, {"smiles": "C#Cc1cccc(Nc2ncnc3cc(OCCOC)c(OCCOC)cc23)c1", "note": "[erlotinib] + CC1(C)NC(=O)N(c2ccc([N+](=O)[O-])c(C(F)(F)F)c2)C1=O [nilutamide] (first compound 0.8 µM, partner dose 1 µM)", "cleaved PARP positive nuclei fraction": 104}, {"smiles": "CO[C@@H]1[C@H](N(C)C(=O)c2ccccc2)C[C@H]2O[C@]1(C)n1c3ccccc3c3c4c(c5c6ccccc6n2c5c31)C(=O)NC4", "note": "[Midostaurin] + CCCCCCCCCCCC1=C(O)C(=O)C=C(O)C1=O [Embelin] (first compound 0.08 µM, partner dose 1.2 µM)", "cleaved PARP positive nuclei fraction": 128}, {"smiles": "NC(=O)Nc1cc(-c2cccc(F)c2)sc1C(=O)N[C@H]1CCCNC1", "note": "+ CN(C)S(=O)(=O)c1ccc2c(c1)/C(=C/c1cc3c([nH]1)CCCC3)C(=O)N2 [SU6656] (first compound 0.02 µM, partner dose 0.4 µM)", "cleaved PARP positive nuclei fraction": 116}, {"smiles": "Clc1ccc(Nc2nnc(Cc3ccncc3)c3ccccc23)cc1", "note": "[vatalanib] + Cc1cc(N2CCOCC2)cc2[nH]c(-c3c(NC[C@@H](O)c4cccc(Cl)c4)cc[nH]c3=O)nc12 [BMS536924] (first compound 2 µM, partner dose 0.2 µM)", "cleaved PARP positive nuclei fraction": 106}, {"smiles": "Cc1cc(N2CCOCC2)cc2[nH]c(-c3c(NC[C@@H](O)c4cccc(Cl)c4)cc[nH]c3=O)nc12", "note": "+ OCCn1cc(-c2cnc3nnn(Cc4ccc5ncccc5c4)c3n2)cn1 [PF04217903] (first compound 0.2 µM, partner dose 1 µM)", "cleaved PARP positive nuclei fraction": 99.9}, {"smiles": "COc1cc(Nc2ncc(F)c(Nc3ccc4c(n3)NC(=O)C(C)(C)O4)n2)cc(OC)c1OC", "note": "[Tamatinib] + Oc1nc(-c2ccc(C(F)(F)F)cc2)nc2c1CSCC2 [XAV939] (first compound 0.4 µM, partner dose 2 µM)", "cleaved PARP positive nuclei fraction": 164}, {"smiles": "Clc1ccc(Nc2nnc(Cc3ccncc3)c3ccccc23)cc1", "note": "[vatalanib] + O=C(Nc1cccc(Cl)c1)Nc1ncc(CCNc2ncnc3ccsc23)s1 [SNS314] (first compound 2 µM, partner dose 0.0008 µM)", "cleaved PARP positive nuclei fraction": 112}, {"smiles": "NC(=O)Nc1cc(-c2cccc(F)c2)sc1C(=O)N[C@H]1CCCNC1", "note": "+ COc1ccc(-c2ccc3c(N4CCOCC4)nc(N4C[C@@H](C)O[C@@H](C)C4)nc3n2)cc1CO [KU0063794] (first compound 0.02 µM, partner dose 0.02 µM)", "cleaved PARP positive nuclei fraction": 109}, {"smiles": "C[C@@H]1CCN(C(=O)CC#N)C[C@@H]1N(C)c1ncnc2[nH]ccc12", "note": "+ COc1ccc(-c2ccc3c(N4CCOCC4)nc(N4C[C@@H](C)O[C@@H](C)C4)nc3n2)cc1CO [KU0063794] (first compound 1 µM, partner dose 0.02 µM)", "cleaved PARP positive nuclei fraction": 116}, {"smiles": "Clc1ccc(Nc2nnc(Cc3ccncc3)c3ccccc23)cc1", "note": "[vatalanib] + O=C1NC(=O)/C(=C/c2ccc(-c3ccc(F)cc3O)o2)S1 [AS252424] (first compound 2 µM, partner dose 1 µM)", "cleaved PARP positive nuclei fraction": 117}, {"smiles": "C[C@]1(c2nc3c(C(N)=O)cccc3[nH]2)CCCN1", "note": "[Veliparib] + COc1cc2ncnc(Nc3ccc(Oc4ccccc4)cc3)c2cc1OC [SrcI1] (first compound 1.4 µM, partner dose 2 µM)", "cleaved PARP positive nuclei fraction": 139}, {"smiles": "Cn1nnc2c(C(N)=O)ncn2c1=O", "note": "[temozolomide] + Cc1ccc(NC(=O)c2cccc(N(C)C)c2)cc1NC(=O)c1ccc(O)cc1 [ZM336372] (first compound 2 µM, partner dose 2 µM)", "cleaved PARP positive nuclei fraction": 89.4}]}]}
